# Library screening results

Chains of the proteins cited; added tags and fusions are not shown.
UniProt E9BF75, entry or part of it: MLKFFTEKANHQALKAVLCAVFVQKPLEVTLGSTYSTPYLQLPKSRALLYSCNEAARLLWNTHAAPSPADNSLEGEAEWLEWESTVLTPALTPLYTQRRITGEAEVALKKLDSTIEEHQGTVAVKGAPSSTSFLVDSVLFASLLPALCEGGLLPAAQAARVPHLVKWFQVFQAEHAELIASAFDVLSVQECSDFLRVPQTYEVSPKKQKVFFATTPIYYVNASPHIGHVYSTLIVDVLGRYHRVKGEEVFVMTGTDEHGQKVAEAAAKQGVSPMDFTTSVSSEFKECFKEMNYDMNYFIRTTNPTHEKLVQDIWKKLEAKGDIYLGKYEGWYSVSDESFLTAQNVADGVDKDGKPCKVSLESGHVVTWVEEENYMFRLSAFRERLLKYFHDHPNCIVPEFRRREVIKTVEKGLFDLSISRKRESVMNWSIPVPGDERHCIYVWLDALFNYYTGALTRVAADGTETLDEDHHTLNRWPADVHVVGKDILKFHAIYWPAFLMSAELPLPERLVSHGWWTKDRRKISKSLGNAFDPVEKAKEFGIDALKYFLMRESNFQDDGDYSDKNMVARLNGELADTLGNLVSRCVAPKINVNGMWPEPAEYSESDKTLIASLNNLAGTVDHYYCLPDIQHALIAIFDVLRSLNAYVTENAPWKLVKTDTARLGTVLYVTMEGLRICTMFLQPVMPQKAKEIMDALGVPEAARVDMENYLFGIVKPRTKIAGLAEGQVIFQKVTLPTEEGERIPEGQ

From ChEMBL document CHEMBL3988442, “University of Dundee, Small-Polar-MMV Screening Library” (2021).

Results are percentages, as filed.
The record does not define 0% and 100%; most values in the screen are far below 50% and negative numbers occur (in some assays of this library far below -100).
Compounds were drawn at random from those tested, without regard to their results.
A dash means the value is not listed here; it may have been measured.

Mtb heat-shock: 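Assay on Mycobacterium tuberculosis, filed only as a heat shock assay from Cornell; the read-out is not stated. The concentration is filed as 10 mM, unlikely as a test dose, so the dose is not known. Direction is inferred from retests: higher values go with stronger inhibition. About 69,000 compounds were tested under these conditions; 1.4% (about 930) showed 50% or more at least once.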
LdMetRS: 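Methionyl-tRNA synthetase (putative), Leishmania donovani (UniProt E9BF75). Primary screen of methionyl-tRNA synthetase; the read-out is not stated. The test concentration is not given. Values are per cent inhibition. Of about 68,000 compounds tested this way, about 24 (0.035%) reached 50% or more in at least one test.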
Mtb growth Cornell: 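Whole-cell assay for inhibitors of Mycobacterium tuberculosis growth, labelled Cornell in the record; the read-out is not stated. The concentration is filed as 10 mM, unlikely as a test dose, so the dose is not known. The record gives no direction; compounds strong in two other growth screens of this library score well above the rest, so higher reads as stronger inhibition. About 53,000 compounds were tested under these conditions; 1.7% (about 900) showed 50% or more at least once.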

structure	Mtb heat-shock	LdMetRS	Mtb growth Cornell
CCCC(=O)Nc1ccc(CC(=O)N(CC)CC2CCCCO2)cc1 (configuration not stated)	-39.39	3.663	-
O=C(NCc1cc[nH]n1)NCC(O)COc1cccc(F)c1 (configuration not stated)	-25.34	4.196	-
CNS(=O)(=O)c1ccc(C(=O)N2CCCC2c2cnn(C)c2)o1 (configuration not stated)	2.084	3.15	-11.91
COCC(=O)N1CCN(CCn2cccn2)c2nc(C)ccc2C1	-	16.24	-
[H][C@]12CC[C@]([H])(CN(S(C)(=O)=O)C1)N(Cc1cscn1)C2=O	-35.49	-	14.22
CC(C)n1ccc(CN2CCOC(CNc3cccnn3)C2)n1 (configuration not stated)	-9.293	16.27	-
COc1cccc2cc(CNCc3ccc(N4CCCC4)nc3)oc12	-33.09	19.44	-14.56
CC(C)(C)c1cc(NC(=O)CN2CCCC2Cn2cccn2)on1 (configuration not stated)	77.39	12.02	-
O=C1N(CCO)CCCC12CCN(Cc1nnc(C3CC3)o1)C2 (configuration not stated)	-7.158	5.625	-
CCS(=O)(=O)CCN(C)Cc1cc(C)ccc1OC	1.375	10.61	4.544
Cc1cc(C(=O)N2CCCC(c3nccn3Cc3cscn3)C2)on1 (configuration not stated)	-12.86	11.37	12.66
CC(OCC1CC1)C(=O)Nc1cccc(C(=O)Nc2ccncc2)c1 (configuration not stated)	-45.93	4.336	7.676
O=C(NCc1nnc2n1CCCC2)N1CCc2sccc2C1	-6.032	21.31	-
O=C(NCCNc1ncccn1)C1CCN(C(=O)N2CCCC2)CC1	-15.72	21.67	19.44
Cc1nc(C)n(CC2CN(Cc3noc(C4CC4)n3)CCO2)n1 (configuration not stated)	-9.767	16.87	-
CCCn1cc(-c2ccnc(NC3CCc4ccccc43)n2)c(C)n1 (configuration not stated)	18.89	22.22	36.22
Cc1nc(CN2CCOCC3(CCN(c4cnccn4)CC3)C2)cs1	-	13.77	-
CC(Cn1cccn1)NCc1csc(-c2ccccc2F)n1 (configuration not stated)	54.47	4.575	15.27
Cc1cc(N)nc(SC2CCCN(Cc3ccccc3)C2=O)n1 (configuration not stated)	-18.32	9.023	-
CCN1CCC(NN2CCN(C)CC2)CC1	-16.9	4.267	-
CC(C)c1nccc(CN2CCC(O)(CN3CCCCC3)C2)n1 (configuration not stated)	22.92	13.81	-39.73
O=C(c1ccoc1)N1CCC2(CCCN(c3ncc(F)cn3)C2)C1 (configuration not stated)	25.7	13.44	3.251
CNc1nc(C)c(C(=O)N2CCCCC2CN2CCCCCC2)s1 (configuration not stated)	23	15.68	-
CC(C)C(Sc1nnnn1C1CC1)C(=O)NCc1ccccc1 (configuration not stated)	-3.587	19.66	-5.783
CCC(C)N(C)CCNC(=O)c1ccccc1OCCOC (configuration not stated)	-9.413	21.65	5.556
CN(C)CCOCc1nnc2n1CCN(Cc1ccco1)C2	-	-58.4	-
COc1ccc(CCNC(C)c2ccc3[nH]c(=O)[nH]c3c2)cc1OC (configuration not stated)	6.666	15	-69.22
Cc1cc(CN(C)C(=O)NC2CCN(Cc3ccccn3)CC2)no1	-9.731	12.65	-
CNC(=O)[C@@H](c1ccccc1OC)N1CCC[C@H]1C(=O)NC1CC1	-	12.05	-
[H][C@@]12CCN(C(=O)c3ccncc3)C[C@@]1([H])O[C@@H](C)C2	-22.75	-	20.41
COCCC(=O)N1CCCC(c2noc3nc(C)cc(C(F)(F)F)c23)C1 (configuration not stated)	-2.9	11.65	-5.922
CC(C)c1ccc(CNC(c2ccc(F)cn2)C(C)C)cc1 (configuration not stated)	17.91	9.657	16.87
COCCn1ccc(=O)c(OCC(=O)Nc2ccccc2)c1C	2.092	12.86	-
[H][C@@]12CS(=O)(=O)C[C@]1([H])N(C(=O)Cc1ccc(O)c(F)c1)CCN2CC1CC1	4.262	-	-41.87
COc1ccc2c(c1)CN(c1cc(N3CCCC3CO)ncn1)CC2 (configuration not stated)	13.85	11.34	24.46
Cc1ccc(NC2CCN(C(=O)Cn3nc(C)cc3C)CC2)nn1	10.36	17.35	-
CCOCC(=O)Nc1cccc(Oc2ccccn2)c1	12.62	19.1	12.77
C1CC(NCC2CC2)CN(Cc2noc(C3CC3)n2)C1 (configuration not stated)	2.715	5.584	-
CCc1nc2c(c(N3CCOCC3)n1)CCN(C(=O)c1ccon1)CC2	-33.36	-3.136	-35.65
CN1C(=O)CC[C@]12CC[C@@H](NCc1ccsc1)CC2	-	17.93	-

For reference, 3 entries once more:

structure	Mtb heat-shock	LdMetRS	Mtb growth Cornell
[H][C@@]12CS(=O)(=O)C[C@]1([H])N(C(=O)Cc1ccc(O)c(F)c1)CCN2CC1CC1	4.262	-	-41.87
Cc1cc(CN(C)C(=O)NC2CCN(Cc3ccccn3)CC2)no1	-9.731	12.65	-
COCC(=O)N1CCN(CCn2cccn2)c2nc(C)ccc2C1	-	16.24	-